Source: PubChem BioAssay AID485353 (National Center for Advancing Translational Sciences (NCATS), 2010)
The campaign covered roughly 330,000 compounds. About 610 (0.18%) were called active. Inconclusive results, whose numbers are uncertain, are shown with a selection of clear calls. Calls follow the shape of the full dose curve. Potencies beside an inconclusive call are fits to weak or partial responses and may not hold up.

Test: qHTS of Yeast-based Assay for SARS-CoV PLP; also: nearly all actives have a fitted effect of over 55% in size
Details: S. cerevisiae expressing SARS-CoV PLpro; Potency: growth rescue; series mostly up to 32.9 µM
Potency is read from the fitted curve at half-maximal effect.

SMILES | Potency
COc1cccc(/C=N/NC(N)=S)c1OCc1ccccc1Cl | inconclusive: 10 µM [activator, single point]
CCC1Sc2ccc(S(=O)(=O)CCC(=O)Nc3c(Cl)cc(OC)cc3OC)cc2NC1=O (stereo not drawn) | inconclusive: 4.47 µM [activator, single point]
COc1ccc(C2c3cc(OC)c(OC)cc3CCN2C(=O)c2ccccc2)cc1OC (stereo not drawn) | inconclusive: 3.98 µM [activator, single point]
CC(=O)Nc1cccc(C(=O)OCc2ccc(C(=O)Oc3ccc(Cl)cc3)cc2)c1 | inconclusive: 4.47 µM [activator, single point]
Cc1cccn2cc(CNS(=O)(=O)c3cccc(F)c3)nc12 | inconclusive: 12.6 µM [activator, single point]
O=S(=O)(c1ccccc1C(F)(F)F)N1CCN(S(=O)(=O)c2ccccc2C(F)(F)F)CC1 | inactive
COCCNCC(O)CON=C1c2ccccc2-c2ccccc21 (stereo not drawn) | inactive
ClCc1nnc(-c2cc3c(s2)CCCC3)o1 | inconclusive: 20 µM [activator, single point]
N#CC1=C2SCN(Cc3ccco3)CN2C(=O)CC1c1ccccc1F (stereo not drawn) | inactive
Fc1ccccc1OCCCCn1cncn1 | inconclusive: 0.891 µM [activator, full curve, poor fit]
COC(=O)C(CC(C)C)N1CCC(=O)c2ccccc2S1(=O)=O (stereo not drawn) | inconclusive: 20 µM [activator, single point]
Cc1cc(NC(=O)C2CC2)ncc1NC(=O)C12CC3CC(CC(C3)C1)C2 | inconclusive: 20 µM [activator, single point]
O=c1c2nnn(-c3ccccc3)c2ncn1C/C=C/c1ccccc1 | inactive
O=C(N/N=C/c1cccc(Cl)c1)C1CCCC1 | inconclusive: 4.47 µM [activator, single point]
Oc1ccc2ccccc2c1/C=N/Nc1nnc(-c2ncc[nH]2)c2ccccc12 | inconclusive: 7.08 µM [activator, partial curve]
Cc1cccc(NS(=O)(=O)c2cn(C)c(=O)n(C)c2=O)c1C | inconclusive: 4.47 µM [activator, single point]
O=C(COC(=O)c1cccc([N+](=O)[O-])c1)NCc1ccc2c(c1)OCO2 | inconclusive: 1 µM [activator, full curve, poor fit]
COc1ccc(C2CC2/C(=N/O)c2ccccn2)cc1 (stereo not drawn) | inconclusive: 15.8 µM [activator, single point]
COc1ccc2nc(NC(=O)CCc3nc(-c4ccccc4F)no3)sc2c1 | inconclusive: 3.98 µM [activator, single point]
CC1(C)C(c2cccs2)=[N+]([O-])C2(CCCCC/C2=N\NC(N)=S)N1O (stereo not drawn) | inconclusive: 8.91 µM [activator, partial curve]
NS(=O)(=O)c1ccc(S(=O)(=O)NCCc2ccccc2)cc1 | inconclusive: 14.1 µM [activator, single point]
O=Cc1c(Sc2ccccc2)nc2ccccn2c1=O | inconclusive: 17.8 µM [activator, single point]
C/C(CC(=O)Nc1ccc(N(C)C)cc1)=N\NC(=O)c1ccccn1 | inactive

In the list so far, these have two or more sulfur atoms:
SMILES | Potency
CCC1Sc2ccc(S(=O)(=O)CCC(=O)Nc3c(Cl)cc(OC)cc3OC)cc2NC1=O (stereo not drawn) | inconclusive: 4.47 µM [activator, single point]
O=S(=O)(c1ccccc1C(F)(F)F)N1CCN(S(=O)(=O)c2ccccc2C(F)(F)F)CC1 | inactive
CC1(C)C(c2cccs2)=[N+]([O-])C2(CCCCC/C2=N\NC(N)=S)N1O (stereo not drawn) | inconclusive: 8.91 µM [activator, partial curve]
NS(=O)(=O)c1ccc(S(=O)(=O)NCCc2ccccc2)cc1 | inconclusive: 14.1 µM [activator, single point]

The results go on:

SMILES | Potency
COc1ccc(Nc2nc(N)nc(CSC(=S)N3CCC(C)CC3)n2)cc1 | inconclusive: 7.08 µM [activator, partial curve]
CN(C)S(=O)(=O)c1ccc(-c2cn3ccccc3n2)cc1 | inactive
Cn1c(-c2ccccc2)c(C#Cc2ccc(N)cc2)c2ccccc21 | inactive
Cc1cc(C)n(CC(C)NC(=O)c2cc(COc3ccc(F)c(F)c3)on2)n1 (stereo not drawn) | inconclusive: 3.98 µM [activator, single point]
COc1cccc(NC(=O)CN(C)CC(=O)Nc2ccc(Cl)cc2[N+](=O)[O-])c1 | inactive
Cc1nn(-c2ccccc2)c(C)c1NC(=O)COc1ccc2ccccc2c1 | inconclusive: 3.55 µM [activator, partial curve]
CC1Cc2ccccc2N1C(=O)CSc1nnc(N)s1 (stereo not drawn) | inactive
O=C(c1cccc(Cl)c1)N1CCCC(C(=O)N2CCCCCC2)C1 (stereo not drawn) | inactive
O=C(COC(=O)c1nc(Cl)ccc1Cl)Nc1ncc(Cl)cc1Cl | inconclusive: 1.12 µM [activator, partial curve]
CC(C)OCCCNC(=O)CCc1nc(-c2ccccc2)no1 | inactive
COc1ccc(/C=N/NC(=O)c2cc(O)c(O)c(O)c2)cc1Cn1cc([N+](=O)[O-])cn1 | active: 10 µM
CCOC(=O)C1CCCN(S(=O)(=O)c2ccc3c(c2)N(C)C(=O)CC(=O)N3C)C1 (stereo not drawn) | inconclusive: 3.55 µM [activator, single point]
COC(=O)Cn1c(CN2CCOCC2)nc2c1c(=O)n(C)c(=O)n2C | inconclusive: 2.82 µM [activator, single point]
C/C(=N\NC(=O)CNC(=O)c1ccc(Br)cc1)c1ccco1 | inconclusive: 12.6 µM [activator, single point]
Cc1ccc(CCNC(=O)c2ccc(CS(=O)(=O)c3ccccc3C)o2)cc1 | inconclusive: 12.6 µM [activator, partial curve]
O=C(NCc1ccncc1)C(=O)NCC1OCCN1S(=O)(=O)c1ccc(Br)cc1 (stereo not drawn) | inconclusive: 2.82 µM [activator, single point]
CCOCCCNC(=O)CCCC1=NS(=O)(=O)c2ccccc2N1 | inconclusive: 11.2 µM [activator, partial curve]
O=C(Cc1cn(Cc2cccc(Cl)c2)c2ccccc12)N1CCCC1 | inconclusive: 1.41 µM [activator, full curve, poor fit]
CCC(=O)Nc1nc2nc(C)cc(=O)n2[nH]1 | inconclusive: 22.4 µM [activator, partial curve, poor fit]
COCCN(C(=S)Nc1ccccc1OC)C(C)c1cccs1 (stereo not drawn) | inactive
COC(=O)c1ccc(N=NNc2ccc(C(=O)OC)cc2)cc1 | inconclusive: 20 µM [activator, single point]
COc1ccccc1N1CCN(Cc2cc(Br)c(O)c3ncccc23)CC1 | inconclusive: 20 µM [activator, single point]
O=C(OC1CCOC1=O)c1cc(-c2ccc(Br)cc2)nc2ccccc12 (stereo not drawn) | inconclusive: 3.98 µM [activator, single point]

SMILES | Potency
CCCCn1c(N)c(N(CCOC)C(=O)COC(=O)c2cc(CCC)c(C)s2)c(=O)[nH]c1=O | inconclusive: 11.2 µM [activator, single point]
CCN(CC)S(=O)(=O)c1ccc(C(=O)NCC(=O)N/N=C/c2ccccc2OC)cc1 | inconclusive: 3.16 µM [activator, single point]
CCCCCCC(=O)Nc1nc(C)c(-c2csc(Nc3cc(OC)ccc3OC)n2)s1 | inconclusive: 12.6 µM [activator, single point]
CSc1ccc(CCNC(=O)c2nn(C)c3c2CS(=O)(=O)c2ccccc2-3)cc1 | inconclusive: 2.82 µM [activator, single point]
CCOc1cccc(CN2CCCC(N3CCN(c4cccc(Cl)c4)CC3)C2)c1O (stereo not drawn) | inconclusive: 3.55 µM [activator, single point]
O=C1NC(=O)N(Cc2ccccc2)C(=O)/C1=C\N1CCCc2ccccc21 | inconclusive: 12.6 µM [activator, partial curve]
Cc1ccccc1NS(=O)(=O)c1ccc2oc(=O)ccc2c1 | inconclusive: 3.16 µM [activator, single point]
O=C(CN1C2=NCCCN2c2ccccc21)c1ccc2c(c1)OCO2 | inactive
C/C(=N\NC(=O)c1cccc(Br)c1)c1ccccn1 | inconclusive: 3.98 µM [activator, single point]
CCC(=O)Nc1ccc(C(=O)Nc2cc(C)on2)cc1 | inconclusive: 3.98 µM [activator, single point]
Cc1ccc2[nH]c3c(NCc4ccco4)ncnc3c2c1 | inactive
Brc1ccc(OCc2nnc3n2CCC3)cc1 | inconclusive: 4.47 µM [activator, single point]
CCCOc1ccc(C(=O)Nc2ccc(S(=O)(=O)N3CCN(C)CC3)cc2)cc1 | inconclusive: 4.47 µM [activator, single point]
COC(=O)Nc1ccc(S(=O)(=O)Nc2cc(OC)nc(OC)n2)cc1 | inconclusive: 20 µM [activator, single point]
O=S(=O)(/N=C(/Nc1cccc2ccccc12)c1ccccc1)c1ccc(Br)cc1 | inconclusive: 3.55 µM [activator, single point]
COc1ccc(N(C)C(=O)c2cc3c(s2)-c2ccccc2OC3)c(OC)c1 | inconclusive: 3.98 µM [activator, single point]
CN(CC(=O)Nc1cccc(F)c1)C(=O)COc1cccc2c1OC(C)(C)C2 | inconclusive: 20 µM [activator, single point]
CC(=O)NC(CC(=O)Nc1ccc(S(=O)(=O)N2CCCC2)cc1)c1ccccc1 (stereo not drawn) | inconclusive: 3.98 µM [activator, single point]
COc1cc2[nH]c(=O)n(-c3ccc(C)cc3)c(=O)c2cc1OC | inconclusive: 22.4 µM [activator, single point]
Cc1n[nH]c(=O)nc1N/N=C/c1ccco1 | inactive
O=C(NCc1ccco1)c1cc(-c2cccnc2)nc2ccc(Cl)cc12 | inconclusive: 3.98 µM [activator, single point]
CNC(=O)NC(=O)C(C)OC(=O)c1cc2c(s1)CCCCC2 (stereo not drawn) | inconclusive: 17.8 µM [activator, partial curve, poor fit]
